Source: article PMC10073093, “TGFBI remodels adipose metabolism by regulating the Notch-1 signaling pathway” (Experimental & Molecular Medicine, 2023)
These are yes or no findings as the source states them, for the method shown. In cells and extracts the contact can be indirect. Some entries that bind do so weakly or less than the wild type.

By UniProt entry, the sequences of proteins in these tests, tags left out. Residues count along the entry.
UniProt Q01705, residues 19-2531: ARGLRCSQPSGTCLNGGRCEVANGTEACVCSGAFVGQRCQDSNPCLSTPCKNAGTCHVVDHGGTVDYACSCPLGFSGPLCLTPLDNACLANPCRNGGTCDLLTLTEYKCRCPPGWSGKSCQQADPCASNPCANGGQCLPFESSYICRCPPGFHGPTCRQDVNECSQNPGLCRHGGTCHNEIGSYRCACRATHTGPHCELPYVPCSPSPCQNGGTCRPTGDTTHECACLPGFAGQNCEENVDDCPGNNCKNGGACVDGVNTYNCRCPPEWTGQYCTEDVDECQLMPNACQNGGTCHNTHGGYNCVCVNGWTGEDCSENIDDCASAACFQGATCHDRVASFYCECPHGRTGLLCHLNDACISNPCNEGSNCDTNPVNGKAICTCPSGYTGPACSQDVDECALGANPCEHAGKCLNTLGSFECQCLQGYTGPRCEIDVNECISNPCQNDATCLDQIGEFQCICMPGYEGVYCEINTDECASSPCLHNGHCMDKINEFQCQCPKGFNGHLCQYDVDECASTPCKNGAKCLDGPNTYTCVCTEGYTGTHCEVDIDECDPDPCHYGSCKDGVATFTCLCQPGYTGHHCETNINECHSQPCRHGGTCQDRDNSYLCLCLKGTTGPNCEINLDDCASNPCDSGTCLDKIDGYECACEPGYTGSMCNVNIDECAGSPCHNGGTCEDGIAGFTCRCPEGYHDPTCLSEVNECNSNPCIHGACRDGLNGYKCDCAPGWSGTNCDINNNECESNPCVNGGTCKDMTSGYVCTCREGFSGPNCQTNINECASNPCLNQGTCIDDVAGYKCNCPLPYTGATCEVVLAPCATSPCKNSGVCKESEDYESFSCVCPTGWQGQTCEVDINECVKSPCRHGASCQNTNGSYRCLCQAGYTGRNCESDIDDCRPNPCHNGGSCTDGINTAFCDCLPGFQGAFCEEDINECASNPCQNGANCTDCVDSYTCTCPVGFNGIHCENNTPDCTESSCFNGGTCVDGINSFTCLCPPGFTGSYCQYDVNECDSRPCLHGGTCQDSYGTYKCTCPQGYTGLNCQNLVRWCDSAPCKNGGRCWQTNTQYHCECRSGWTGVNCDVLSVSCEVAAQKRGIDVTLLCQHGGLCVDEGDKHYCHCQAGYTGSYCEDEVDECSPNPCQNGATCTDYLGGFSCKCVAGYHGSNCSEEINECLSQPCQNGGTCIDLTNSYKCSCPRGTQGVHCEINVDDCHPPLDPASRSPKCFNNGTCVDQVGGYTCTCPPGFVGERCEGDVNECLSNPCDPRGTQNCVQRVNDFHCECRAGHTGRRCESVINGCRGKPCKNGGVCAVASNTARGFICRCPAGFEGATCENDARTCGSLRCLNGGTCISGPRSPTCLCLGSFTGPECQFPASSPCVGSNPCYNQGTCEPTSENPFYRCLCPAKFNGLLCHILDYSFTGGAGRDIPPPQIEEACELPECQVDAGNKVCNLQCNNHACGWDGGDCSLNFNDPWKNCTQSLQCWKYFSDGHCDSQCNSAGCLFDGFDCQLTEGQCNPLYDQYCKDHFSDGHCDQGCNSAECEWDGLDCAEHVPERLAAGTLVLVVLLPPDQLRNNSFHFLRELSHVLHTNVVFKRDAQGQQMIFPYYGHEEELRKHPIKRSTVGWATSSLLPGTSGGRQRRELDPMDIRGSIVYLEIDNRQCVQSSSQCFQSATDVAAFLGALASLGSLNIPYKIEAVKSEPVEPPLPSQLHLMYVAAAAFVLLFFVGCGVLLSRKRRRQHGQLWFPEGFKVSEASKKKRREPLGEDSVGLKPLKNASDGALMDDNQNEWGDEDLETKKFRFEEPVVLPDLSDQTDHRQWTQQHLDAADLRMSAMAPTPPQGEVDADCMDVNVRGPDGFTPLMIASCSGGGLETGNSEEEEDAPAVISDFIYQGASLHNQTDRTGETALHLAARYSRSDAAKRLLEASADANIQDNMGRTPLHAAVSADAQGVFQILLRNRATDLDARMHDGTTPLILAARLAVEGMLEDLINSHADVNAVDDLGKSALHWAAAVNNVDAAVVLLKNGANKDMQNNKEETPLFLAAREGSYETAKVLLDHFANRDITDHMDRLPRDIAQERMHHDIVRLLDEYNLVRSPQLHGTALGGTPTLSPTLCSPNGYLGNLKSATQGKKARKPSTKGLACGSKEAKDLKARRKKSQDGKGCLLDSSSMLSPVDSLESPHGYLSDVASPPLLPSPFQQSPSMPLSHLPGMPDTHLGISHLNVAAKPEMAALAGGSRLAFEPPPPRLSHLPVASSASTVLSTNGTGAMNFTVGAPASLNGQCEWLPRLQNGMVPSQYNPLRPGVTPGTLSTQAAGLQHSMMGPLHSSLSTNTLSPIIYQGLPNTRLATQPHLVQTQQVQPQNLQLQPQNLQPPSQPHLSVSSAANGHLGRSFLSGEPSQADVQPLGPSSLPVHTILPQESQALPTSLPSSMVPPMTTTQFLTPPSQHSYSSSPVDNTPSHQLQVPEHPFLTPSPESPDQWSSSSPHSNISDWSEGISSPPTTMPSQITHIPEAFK

Target: Notch-1 (endogenous in 3T3-L1 cells) (mouse (endogenous in 3T3-L1)) (UniProt Q01705)
Assay: co-IP; 3T3-L1 preadipocytes treated with recombinant TGFBI (20 µg/ml) for 24 h; RIPA buffer with 10 mM N-ethylmaleimide; primary antibody overnight at 4 °C, Protein G agarose beads; western blot; only the binder purified

B1: Recombinant TGFBI (transforming growth factor-beta-induced protein) (protein, UniProt Q15582 24-683)
chain: GPAKSPYQLVLQHSRLRGRQHGPNVCAVQKVIGTNRKYFTNCKQWYQRKICGKSTVISYECCPGYEKVPGEKGCPAALPLSNLYETLGVVGSTTTQLYTDRTEKLRPEMEGPGSFTIFAPSNEAWASLPAEVLDSLVSNVNIELLNALRYHMVGRRVLTDELKHGMTLTSMYQNSNIQIHHYPNGIVTVNCARLLKADHHATNGVVHLIDKVISTITNNIQQIIEIEDTFETLRAAVAASGLNTMLEGNGQYTLLAPTNEAFEKIPSETLNRILGDPEALRDLLNNHILKSAMCAEAIVAGLSVETLEGTTLEVGCSGDMLTINGKAIISNKDILATNGVIHYIDELLIPDSAKTLFELAAESDVSTAIDLFRQAGLGNHLSGSERLTLLAPLNSVFKDGTPPIDAHTRNLLRNHIIKDQLASKYLYHGQTLETLGGKKLRVFVYRNSLCIENSCIAAHDKRGRYGTLFTMDRVLTPPMGTVMDVLKGDNRFSMLVAAIQSAGLTETLNREGVYTVFAPTNEAFRALPPRERSRLLGDAKELANILKYHIGDEILVSGGIGALVRLKSLQGDKLEVSLKNNVVSVNKEPVAEPDIMATNGVVHVITNVLQPPANRPQERGDELADSALEIFKQASAFSRASQRSVRLAPVYQKLLERMKH
  binding: binds
